Article PMC4587574
Results are given in words; binding and its absence hold for the method and conditions named. Binding seen in cells or lysates may run through a third protein. For some assays here: Binding can be weak; no strength is given. Tags and fused reporters may be left off the sequences shown.

What was measured:
Experiment in all cases: co-IP; HEK293 cells co-transfected with Flag-HSP90, Flag-HSP70 or Flag-tagged HSP90 domain constructs and GFP-tagged PABPN1; lysates precipitated with anti-Flag antibody, blotted with anti-GFP
[1] = molecular target: Flag-HSP90 (full-length) (mouse)
[2] = molecular target: Flag-tagged HSP90 Δ233–439 (mouse)
[3] = molecular target: Flag-tagged HSP90 (aa 1–620) (mouse)
[4] = molecular target: Flag-tagged HSP90 N-terminal fragment (aa 1–232) (mouse)
[5] = molecular target: Flag-HSP70 (mouse)
[6] = molecular target: Flag-tagged HSP90 (aa 1–439) (mouse)

binding [1]	binding [2]	binding [3]	binding [4]	binding [5]	binding [6]	Binder
binds	binds	binds	no binding	binds	binds	GFP-tagged A17-PABPN1 (protein, UniProt Q86U42 1-306) MAAAAAAAAAAAAAAAAAGAAGGRGSGPGRRRHLVPGAGGEAGEGAPGGAGDYGNGLESEELEPEELLLEPEPEPEPEEEPPRPRAPPGAPGPGPGSGAPGSQEEEEEPGLVEGDPGDGAIEDPELEAIKARVREMEEEAEKLKELQNEVEKQMNMSPPPGNAGPVIMSIEEKMEADARSIYVGNVDYGATAEELEAHFHGCGSVNRVTILCDKFSGHPKGFAYIEFSDKESVRTSLALDESLFRGRQIKVIPKRTNRPGISTTDRGFPRARYRARTTNYNSSRSRFYSGFNSRPRGRVYRGRARATSWYSPY
binds	–	–	–	binds	–	GFP-tagged A10-PABPN1 (protein, UniProt Q86U42 1-306) MAAAAAAAAAAGAAGGRGSGPGRRRHLVPGAGGEAGEGAPGGAGDYGNGLESEELEPEELLLEPEPEPEPEEEPPRPRAPPGAPGPGPGSGAPGSQEEEEEPGLVEGDPGDGAIEDPELEAIKARVREMEEEAEKLKELQNEVEKQMNMSPPPGNAGPVIMSIEEKMEADARSIYVGNVDYGATAEELEAHFHGCGSVNRVTILCDKFSGHPKGFAYIEFSDKESVRTSLALDESLFRGRQIKVIPKRTNRPGISTTDRGFPRARYRARTTNYNSSRSRFYSGFNSRPRGRVYRGRARATSWYSPY
